Results deposited as PubChem BioAssay AID1259254 (NCATS, 2017)
Aim: 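Genome-wide screen for genes that prevent DNA re-replication in cancer cells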 (primary screen). System: human HCT116 colorectal cancer cells. Reagent: single siRNA against human genes. Duration: 3 days. Read-out: 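Imaged Hoechst DNA stain sorts each cell into a cycle phase by DNA amount; per plate, G2 fraction set to 0% for non-targeting and 100% for GMNN siRNA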. Scale: G2 robust z-score: higher = more G2 cells, more excess DNA replication. Call rule: 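Active siRNAs have a G2 robust z of 5 or more median absolute deviations over the median, which in these data means about 38% or higher of GMNN control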.
This is a random part of about 59,000 deposited reagents. Over the whole deposit, about 1,550 (2.6%) are marked active. 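G2 share is only a proxy for re-replication; each gene was hit by three separate siRNAs, and active genes were retested.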 Reagents against one gene are numbered here. Further read-outs or replicates are left out here. Reagent sequences are not shown. The record does not give: the amount of reagent.

Gene | reagent | G2 robust z-score | Call
ZNF699 | 1 | -0.533 | inactive
ZNF699 | 2 | -0.41 | inactive
ZNF699 | 3 | -0.597 | inactive
RAP1B | 1 | -0.512 | inactive
RAP1B | 2 | -0.425 | inactive
RAP1B | 3 | 1.17 | inactive
WFDC13 | 1 | -0.55 | inactive
WFDC13 | 2 | 0.612 | inactive
WFDC13 | 3 | 0.0761 | inactive
ZNF417 | 1 | 0.16 | inactive
ZNF417 | 2 | 0.0337 | inactive
ZNF417 | 3 | 0.202 | inactive
CBX5 | 1 | -0.371 | inactive
CBX5 | 2 | -1.04 | inactive
CBX5 | 3 | -1.17 | inactive
CRMA | 1 | -0.724 | inactive
CRMA | 2 | 0.245 | inactive
CRMA | 3 | 0.0671 | inactive
SH3TC2-DT | 1 | -0.516 | inactive
SH3TC2-DT | 2 | 1.79 | inactive
SH3TC2-DT | 3 | 0.178 | inactive
SH3TC2-DT | 4 | -0.388 | inactive
SH3TC2-DT | 5 | 0.393 | inactive
SH3TC2-DT | 6 | 0.827 | inactive
RAB36 | 1 | 1.32 | inactive
RAB36 | 2 | -0.0651 | inactive
RAB36 | 3 | 4.98 | inactive
AKR1C6P | 1 | 0.0803 | inactive
AKR1C6P | 2 | -1.2 | inactive
AKR1C6P | 3 | 2.84 | inactive
NT5DC1 | 1 | -0.458 | inactive
NT5DC1 | 2 | 1.03 | inactive
NT5DC1 | 3 | -0.763 | inactive
CFAP58 | 1 | 0.136 | inactive
CFAP58 | 2 | 0.979 | inactive
CFAP58 | 3 | -0.534 | inactive
SLC30A7 | 1 | -1.14 | inactive
SLC30A7 | 2 | 1.8 | inactive
SLC30A7 | 3 | -0.677 | inactive
RAB6C | 1 | -1.02 | inactive
RAB6C | 2 | 2.05 | inactive
RAB6C | 3 | -0.585 | inactive

Taken from above:
Result for CFAP58 #2 under “G2 robust z-score”: 0.979
Under “Call”, CBX5 #3 is entered as inactive
Under “Call”, NT5DC1 #2 reads inactive
Value of CBX5 #1 under “Call”: inactive

The listing continues.
Gene | reagent | G2 robust z-score | Call
ZDHHC4 | 1 | -0.182 | inactive
ZDHHC4 | 2 | -0.156 | inactive
ZDHHC4 | 3 | 0.909 | inactive
POLR3D | 1 | -0.134 | inactive
POLR3D | 2 | -1.16 | inactive
POLR3D | 3 | -0.647 | inactive
CKLF | 1 | -0.325 | inactive
CKLF | 2 | 0.199 | inactive
CKLF | 3 | 0.127 | inactive
PCSK6 | 1 | -0.905 | inactive
PCSK6 | 2 | -0.0646 | inactive
PCSK6 | 3 | -0.284 | inactive
ZNF613 | 1 | -0.408 | inactive
ZNF613 | 2 | -0.0668 | inactive
ZNF613 | 3 | -0.355 | inactive
THRA | 1 | -0.017 | inactive
THRA | 2 | -0.411 | inactive
THRA | 3 | -0.968 | inactive
DMBX1 | 1 | -0.857 | inactive
DMBX1 | 2 | -0.0744 | inactive
DMBX1 | 3 | -1.21 | inactive
FGR | 1 | -1.4 | inactive
FGR | 2 | 3.36 | inactive
FGR | 3 | -0.396 | inactive
TAAR2 | 1 | -0.32 | inactive
TAAR2 | 2 | -1.01 | inactive
TAAR2 | 3 | -1.09 | inactive
TESK1 | 1 | -1.02 | inactive
TESK1 | 2 | -0.68 | inactive
TESK1 | 3 | -1.48 | inactive
PRLR | 1 | -0.228 | inactive
PRLR | 2 | -0.463 | inactive
PRLR | 3 | 0.887 | inactive
ELAVL2 | 1 | 0.557 | inactive
ELAVL2 | 2 | 1.68 | inactive
ELAVL2 | 3 | -1.03 | inactive
CLNK | 1 | -0.345 | inactive
CLNK | 2 | -0.251 | inactive
CLNK | 3 | -0.265 | inactive
OR5C1 | 1 | 0.25 | inactive
OR5C1 | 2 | -0.756 | inactive
OR5C1 | 3 | 1.81 | inactive
AP1G2 | 1 | -1.28 | inactive
AP1G2 | 2 | -1.07 | inactive
AP1G2 | 3 | -0.285 | inactive
